# Tested on: Spodoptera littoralis
# Experiment: Insecticidal bioassay screening (castor leaf dip), laboratory strain of cotton leafworm
# Type: in vivo
# Details: after 72 hrs of treatment, slope of concentration-mortality (LDP) line
# Procedure: Five concentrations (200, 100, 50, 25, 12.5 ppm) were designed for this synthetic compound and the reference Diflubenzuron compound as the dynamic ingredients based on mg/L via diluting the commercial formulation.
# […] Larvae of the second and fourth instars of each checked strain are prepared with treated leaves in gauze-covered glass containers for 72 hrs. An untreated control is made in which leaves are dipped in triton x-100 and distilled water only. Then the preserved leaves were removed & fresh, untreated leaves were provided for 72 hours. Three replicates (10 larvae each) were checked for each concentration. Daily inspection was carried out for all treatments and mortality percentages were recorded 3 days (72 hours) after treatment. The average mortality percentage was corrected employing Abbott's formula. The corrected mortality rate for each of the previously synthesized compounds is statistically calculated according to Finney (1970). Through this rate, the corresponding concentration test lines (LDP lines) are assessed.
structure (smiles),measurement,setting,value
"O=C(NC(=S)Nc1ncccn1)c1cc([N+](=O)[O-])cc([N+](=O)[O-])c1 [Compound 1, 3,5-dinitro-N-(pyrimidin-2-ylcarbamothioyl)benzamide]",Slope,2nd instar larvae,1.12 ± 0.36
same,Slope,4th instar larvae,1.12 ± 0.36
